Data reported in PubChem BioAssay AID485353 (National Center for Advancing Translational Sciences (NCATS), 2010).
Hit rate of the full screen: of about 330,000 compounds, about 610 (0.18%) were called active. Inconclusive results, whose numbers are uncertain, are shown with a selection of clear calls. Calls follow the shape of the full dose curve. Where the call is inconclusive, the potency comes from a doubtful curve fit.

assay: qHTS of Yeast-based Assay for SARS-CoV PLP; also: nearly all actives have a fitted effect of over 55% in size; as to activity, positive = growth rescue: 0% is about no effect; conditions: S. cerevisiae expressing SARS-CoV PLpro; Potency: growth rescue; activity, positive = growth rescue: at 32.9 µM (top of the series)
Potency is read from the fitted curve at half-maximal effect.

Row | Structure (SMILES) | Potency | activity, positive = growth rescue
1 | COc1ccc(C(=O)/C=C/Nc2ccc(C)cn2)cc1OC | inconclusive: 20 µM [activator, single point] | –
2 | CCCCc1ccc(CC(=O)Nc2cc(S(=O)(=O)N3CCOCC3)ccc2O)cc1 | – | inactive: 2.47%
3 | COc1ccc(OCc2cc(C(=O)NCc3nc(C)cs3)no2)c(Cl)c1 | – | inactive: -10.7%
4 | CC(=O)NCC(=O)OCc1ccc([N+](=O)[O-])cc1 | inconclusive: 20 µM [activator, single point] | –
5 | CCCCC(=O)NC(c1ccccc1Cl)c1ccc2cccnc2c1O (configuration not stated) | inconclusive: 2.51 µM [activator, partial curve] | –
6 | CCC(C)Sc1ccc(-c2nc3ccccn3c2NCc2ccccc2)cc1OC (configuration not stated) | – | inactive: 5.2%
7 | COc1ccc(C2(C)NC(=O)N(CC(=O)NC3(C#N)CCCCC3)C2=O)cc1 (configuration not stated) | inconclusive: 20 µM [activator, single point] | –
8 | CN(c1ccc(F)cc1)S(=O)(=O)c1ccc(Cl)c(C(=O)NCc2ccco2)c1 | – | inactive: 0.919%
9 | COc1cccc(-c2c(NC(=O)c3ccco3)oc3ccccc3c2=O)c1 | inconclusive: 3.16 µM [activator, partial curve, poor fit] | –
10 | CC1=C(C(=O)OC(C)(C)C)C(c2cccc3ccccc23)NC(=O)N1 (configuration not stated) | – | inactive: 3.98%
11 | Cc1ccc(NC(=O)CN2CCc3cc4c(cc3C2)OCCCO4)cc1C | inconclusive: 3.98 µM [activator, single point] | –
12 | CCN(CC)S(=O)(=O)c1cccc(-c2nc3n(n2)Cc2ccccc2-3)c1 | – | inactive: 2.26%
13 | C=CCOc1ccc(C(=O)Nc2ncn[nH]2)cc1 | – | inactive: 2.53%
14 | COc1ccc(CCNC(=O)C2CCC(C(C)(C)C)CC2)cc1OC (configuration not stated) | – | inactive: -2.9%
15 | O=C(CSc1ccc2nnc(CCNS(=O)(=O)c3ccccc3)n2n1)Nc1nc2ccccc2s1 | inconclusive: 15.8 µM [activator, single point] | –
16 | COC(C(=O)Nc1ccc(F)cc1)c1ccccc1 (configuration not stated) | active: 15.8 µM | –
17 | CC1(C)NC(=O)N(CC(=O)Nc2nc(-c3ccc(F)cc3)cs2)C1=O | inconclusive: 4.47 µM [activator, single point] | –
18 | CN(C)CCCN1C(=O)C(=O)/C(=C(/O)c2ccncc2)C1c1cccc(Br)c1 (configuration not stated) | inconclusive: 2.51 µM [activator, single point] | –
19 | Cc1cccc(OCCN2C(=O)C(=O)c3cc(C)ccc32)c1 | – | inactive: -2.97%
20 | Cc1cc(C(=O)CSc2nnc(-c3ccccc3F)o2)c(C)n1Cc1cccs1 | inconclusive: 3.16 µM [activator, partial curve] | –
21 | COc1ccccc1NC(=S)c1ccccc1 | inconclusive: 1.58 µM [activator, partial curve] | –
22 | CCOC(=O)CC1CCCCN1C(=O)CCCn1nnnc1CN1CCC(C)CC1 (configuration not stated) | inconclusive: 3.98 µM [activator, single point] | –
23 | COc1cccc(/C=N/NC(=O)C(=O)NCc2cccnc2)c1O | inconclusive: 20 µM [activator, single point] | –
24 | Cc1ccc(-c2nc3ccccc3c(=O)n2-c2cc(C)ccn2)cc1 | active: 3.98 µM | –

Numbers 5 to 8 from above:
Row | Structure (SMILES) | Potency | activity, positive = growth rescue
5 | CCCCC(=O)NC(c1ccccc1Cl)c1ccc2cccnc2c1O (configuration not stated) | inconclusive: 2.51 µM [activator, partial curve] | –
6 | CCC(C)Sc1ccc(-c2nc3ccccn3c2NCc2ccccc2)cc1OC (configuration not stated) | – | inactive: 5.2%
7 | COc1ccc(C2(C)NC(=O)N(CC(=O)NC3(C#N)CCCCC3)C2=O)cc1 (configuration not stated) | inconclusive: 20 µM [activator, single point] | –
8 | CN(c1ccc(F)cc1)S(=O)(=O)c1ccc(Cl)c(C(=O)NCc2ccco2)c1 | – | inactive: 0.919%

Remaining list, next part.

Row | Structure (SMILES) | Potency | activity, positive = growth rescue
25 | CC1CCCC(NC(=O)COc2ncnc3ccccc23)C1C (configuration not stated) | inconclusive: 3.98 µM [activator, single point] | –
26 | N#Cc1ccc(OCC(O)CN2CCN(c3ncc(C(F)(F)F)cc3Cl)CC2)cc1 (configuration not stated) | – | inactive: -14.1%
27 | CC1=C(CC/C(C)=N/NC(N)=S)C(C)(C)CCC1 | active: 14.1 µM | –
28 | COCc1nnc(NC(=O)c2cc(C(=O)OC)cc([N+](=O)[O-])c2)s1 | inconclusive: 4.47 µM [activator, single point] | –
29 | COc1cccc(-c2ccc3ncnc(NCc4cccc(C)c4)c3c2)c1 | inconclusive: 11.2 µM [activator, partial curve] | –
30 | CCc1ccc2[nH]c3nc(N/N=C/c4cccc(O)c4)nnc3c2c1 | inconclusive: 14.1 µM [activator, single point] | –
31 | Cc1nc(=S)c2ccccc2[nH]1 | inconclusive: 17.8 µM [activator, partial curve, poor fit] | –
32 | COCCn1c(NCc2ccc(C)cc2)nc2c1c(=O)[nH]c(=O)n2C | inconclusive: 2.82 µM [activator, full curve, poor fit] | –
33 | CCOC(=O)c1cccc(NC(=O)CN2CCN(c3ccc(OC)cc3)CC2)c1 | inconclusive: 20 µM [activator, single point] | –
34 | COc1cc(OC)c(-c2nc3ccccc3s2)cc1OC | – | inactive: -2.74%
35 | CCCCOc1cc(C)nc(NCc2ccccc2)n1 | inconclusive: 1.26 µM [activator, full curve, poor fit] | –
36 | CC1CN(Cc2nc3c(c(=O)[nH]c(=O)n3C)n2CCN2CCOCC2)CC(C)O1 (configuration not stated) | inconclusive: 2.51 µM [activator, single point] | –
37 | Cc1cccc(CCNC(=O)COc2cc(=O)n(C)c3ccccc23)c1 | – | inactive: -1.33%
38 | CCCC(C)NC(=O)CSc1nc2ccc(C)cc2[nH]1 (configuration not stated) | – | inactive: 0.19%
39 | Cc1ccc(-c2csc(NC(=O)c3ccc4c(=O)n5c(nc4c3)CCCCC5)n2)cc1 | inconclusive: 2.82 µM [activator, single point] | –
40 | O=C(Nc1ccnn1C1CCN(CCCc2ccccc2)CC1)c1ccccc1Cl | inconclusive: 3.55 µM [activator, single point] | –
41 | CC(=O)Oc1ccc(-c2nc3ccccc3c(=O)o2)cc1 | – | inactive: 6.57%
42 | NC(=O)C1CCN(C(=O)COc2ccc3ccccc3c2Br)CC1 | inconclusive: 3.98 µM [activator, single point] | –
43 | CC1CCCN(C(=O)CCNS(=O)(=O)c2ccc(Br)cc2)C1 (configuration not stated) | inconclusive: 2.82 µM [activator, single point] | –
44 | Fc1ccc(CSc2nnc(-c3cc4c(s3)-c3ccccc3CC4)o2)cc1 | inconclusive: 3.16 µM [activator, single point] | –
45 | COc1cc(OC)nc(NC(=O)COC(=O)C2CCCCC2)n1 | inconclusive: 14.1 µM [activator, single point] | –
46 | OC(CNCCc1ccc(Cl)cc1)COc1cc(Cl)ccc1Cl (configuration not stated) | – | inactive: -3.68%
47 | COc1cccc(C(=O)N(C)CC2CCN(CCc3cccc(C(F)(F)F)c3)CC2)c1 | – | inactive: 2.8%
